{
  "sequences": {"note": "Amino acid sequences for entries named in this document (tags omitted). A change or cut given only in a name is not applied to a line headed by its entry. Residues count along the entry.", "UniProt Q13424": "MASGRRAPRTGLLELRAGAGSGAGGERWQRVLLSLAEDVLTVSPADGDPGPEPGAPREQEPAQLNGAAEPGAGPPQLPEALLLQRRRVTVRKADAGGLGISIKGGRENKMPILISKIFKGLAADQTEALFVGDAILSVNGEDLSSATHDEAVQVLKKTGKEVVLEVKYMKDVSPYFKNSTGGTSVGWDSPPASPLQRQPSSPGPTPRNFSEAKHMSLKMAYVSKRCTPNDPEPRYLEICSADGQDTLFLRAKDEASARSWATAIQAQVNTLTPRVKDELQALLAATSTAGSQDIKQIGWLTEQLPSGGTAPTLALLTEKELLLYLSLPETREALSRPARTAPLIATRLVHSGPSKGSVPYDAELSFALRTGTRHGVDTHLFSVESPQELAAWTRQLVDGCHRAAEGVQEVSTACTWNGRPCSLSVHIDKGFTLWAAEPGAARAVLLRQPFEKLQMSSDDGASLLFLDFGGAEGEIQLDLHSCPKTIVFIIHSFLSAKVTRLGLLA", "UniProt P43007": "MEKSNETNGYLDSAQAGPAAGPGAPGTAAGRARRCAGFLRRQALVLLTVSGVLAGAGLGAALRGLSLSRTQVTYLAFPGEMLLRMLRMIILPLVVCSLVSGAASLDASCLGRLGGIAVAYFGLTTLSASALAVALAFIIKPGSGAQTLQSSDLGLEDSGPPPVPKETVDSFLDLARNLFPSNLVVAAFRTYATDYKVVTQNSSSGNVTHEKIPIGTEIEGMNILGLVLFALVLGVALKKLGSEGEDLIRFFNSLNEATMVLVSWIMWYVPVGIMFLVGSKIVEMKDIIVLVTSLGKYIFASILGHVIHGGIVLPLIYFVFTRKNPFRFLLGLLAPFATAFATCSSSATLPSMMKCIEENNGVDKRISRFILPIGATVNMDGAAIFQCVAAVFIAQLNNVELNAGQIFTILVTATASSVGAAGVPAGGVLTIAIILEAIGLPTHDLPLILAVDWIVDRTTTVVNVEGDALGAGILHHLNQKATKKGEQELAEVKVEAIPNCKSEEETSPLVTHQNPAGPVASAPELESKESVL", "UniProt Q8ND04": "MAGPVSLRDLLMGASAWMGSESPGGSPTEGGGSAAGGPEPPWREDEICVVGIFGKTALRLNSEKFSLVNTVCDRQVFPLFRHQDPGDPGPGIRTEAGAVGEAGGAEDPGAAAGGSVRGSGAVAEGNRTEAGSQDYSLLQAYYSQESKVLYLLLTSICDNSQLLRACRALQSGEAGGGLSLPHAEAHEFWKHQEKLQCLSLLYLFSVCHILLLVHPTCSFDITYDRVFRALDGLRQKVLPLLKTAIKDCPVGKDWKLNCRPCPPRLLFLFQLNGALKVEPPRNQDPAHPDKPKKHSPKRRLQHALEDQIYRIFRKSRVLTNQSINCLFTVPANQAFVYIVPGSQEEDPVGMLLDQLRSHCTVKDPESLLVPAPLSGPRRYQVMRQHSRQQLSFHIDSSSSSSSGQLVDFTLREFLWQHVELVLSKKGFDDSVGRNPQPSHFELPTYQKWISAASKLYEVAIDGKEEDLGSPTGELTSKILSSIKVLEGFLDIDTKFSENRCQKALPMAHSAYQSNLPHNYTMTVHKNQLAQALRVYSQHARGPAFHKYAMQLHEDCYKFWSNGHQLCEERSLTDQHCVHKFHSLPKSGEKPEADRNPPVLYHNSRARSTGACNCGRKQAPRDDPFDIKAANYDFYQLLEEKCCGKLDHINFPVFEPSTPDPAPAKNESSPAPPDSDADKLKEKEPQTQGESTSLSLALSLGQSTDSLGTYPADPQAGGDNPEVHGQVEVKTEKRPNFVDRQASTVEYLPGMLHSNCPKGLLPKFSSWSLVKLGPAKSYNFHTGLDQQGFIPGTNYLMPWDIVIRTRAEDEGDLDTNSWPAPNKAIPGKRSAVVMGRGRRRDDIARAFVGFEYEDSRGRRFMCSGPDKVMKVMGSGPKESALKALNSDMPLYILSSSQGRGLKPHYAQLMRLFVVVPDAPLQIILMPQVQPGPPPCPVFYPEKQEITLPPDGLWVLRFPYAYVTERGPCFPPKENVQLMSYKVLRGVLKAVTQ", "UniProt Q96Q15": "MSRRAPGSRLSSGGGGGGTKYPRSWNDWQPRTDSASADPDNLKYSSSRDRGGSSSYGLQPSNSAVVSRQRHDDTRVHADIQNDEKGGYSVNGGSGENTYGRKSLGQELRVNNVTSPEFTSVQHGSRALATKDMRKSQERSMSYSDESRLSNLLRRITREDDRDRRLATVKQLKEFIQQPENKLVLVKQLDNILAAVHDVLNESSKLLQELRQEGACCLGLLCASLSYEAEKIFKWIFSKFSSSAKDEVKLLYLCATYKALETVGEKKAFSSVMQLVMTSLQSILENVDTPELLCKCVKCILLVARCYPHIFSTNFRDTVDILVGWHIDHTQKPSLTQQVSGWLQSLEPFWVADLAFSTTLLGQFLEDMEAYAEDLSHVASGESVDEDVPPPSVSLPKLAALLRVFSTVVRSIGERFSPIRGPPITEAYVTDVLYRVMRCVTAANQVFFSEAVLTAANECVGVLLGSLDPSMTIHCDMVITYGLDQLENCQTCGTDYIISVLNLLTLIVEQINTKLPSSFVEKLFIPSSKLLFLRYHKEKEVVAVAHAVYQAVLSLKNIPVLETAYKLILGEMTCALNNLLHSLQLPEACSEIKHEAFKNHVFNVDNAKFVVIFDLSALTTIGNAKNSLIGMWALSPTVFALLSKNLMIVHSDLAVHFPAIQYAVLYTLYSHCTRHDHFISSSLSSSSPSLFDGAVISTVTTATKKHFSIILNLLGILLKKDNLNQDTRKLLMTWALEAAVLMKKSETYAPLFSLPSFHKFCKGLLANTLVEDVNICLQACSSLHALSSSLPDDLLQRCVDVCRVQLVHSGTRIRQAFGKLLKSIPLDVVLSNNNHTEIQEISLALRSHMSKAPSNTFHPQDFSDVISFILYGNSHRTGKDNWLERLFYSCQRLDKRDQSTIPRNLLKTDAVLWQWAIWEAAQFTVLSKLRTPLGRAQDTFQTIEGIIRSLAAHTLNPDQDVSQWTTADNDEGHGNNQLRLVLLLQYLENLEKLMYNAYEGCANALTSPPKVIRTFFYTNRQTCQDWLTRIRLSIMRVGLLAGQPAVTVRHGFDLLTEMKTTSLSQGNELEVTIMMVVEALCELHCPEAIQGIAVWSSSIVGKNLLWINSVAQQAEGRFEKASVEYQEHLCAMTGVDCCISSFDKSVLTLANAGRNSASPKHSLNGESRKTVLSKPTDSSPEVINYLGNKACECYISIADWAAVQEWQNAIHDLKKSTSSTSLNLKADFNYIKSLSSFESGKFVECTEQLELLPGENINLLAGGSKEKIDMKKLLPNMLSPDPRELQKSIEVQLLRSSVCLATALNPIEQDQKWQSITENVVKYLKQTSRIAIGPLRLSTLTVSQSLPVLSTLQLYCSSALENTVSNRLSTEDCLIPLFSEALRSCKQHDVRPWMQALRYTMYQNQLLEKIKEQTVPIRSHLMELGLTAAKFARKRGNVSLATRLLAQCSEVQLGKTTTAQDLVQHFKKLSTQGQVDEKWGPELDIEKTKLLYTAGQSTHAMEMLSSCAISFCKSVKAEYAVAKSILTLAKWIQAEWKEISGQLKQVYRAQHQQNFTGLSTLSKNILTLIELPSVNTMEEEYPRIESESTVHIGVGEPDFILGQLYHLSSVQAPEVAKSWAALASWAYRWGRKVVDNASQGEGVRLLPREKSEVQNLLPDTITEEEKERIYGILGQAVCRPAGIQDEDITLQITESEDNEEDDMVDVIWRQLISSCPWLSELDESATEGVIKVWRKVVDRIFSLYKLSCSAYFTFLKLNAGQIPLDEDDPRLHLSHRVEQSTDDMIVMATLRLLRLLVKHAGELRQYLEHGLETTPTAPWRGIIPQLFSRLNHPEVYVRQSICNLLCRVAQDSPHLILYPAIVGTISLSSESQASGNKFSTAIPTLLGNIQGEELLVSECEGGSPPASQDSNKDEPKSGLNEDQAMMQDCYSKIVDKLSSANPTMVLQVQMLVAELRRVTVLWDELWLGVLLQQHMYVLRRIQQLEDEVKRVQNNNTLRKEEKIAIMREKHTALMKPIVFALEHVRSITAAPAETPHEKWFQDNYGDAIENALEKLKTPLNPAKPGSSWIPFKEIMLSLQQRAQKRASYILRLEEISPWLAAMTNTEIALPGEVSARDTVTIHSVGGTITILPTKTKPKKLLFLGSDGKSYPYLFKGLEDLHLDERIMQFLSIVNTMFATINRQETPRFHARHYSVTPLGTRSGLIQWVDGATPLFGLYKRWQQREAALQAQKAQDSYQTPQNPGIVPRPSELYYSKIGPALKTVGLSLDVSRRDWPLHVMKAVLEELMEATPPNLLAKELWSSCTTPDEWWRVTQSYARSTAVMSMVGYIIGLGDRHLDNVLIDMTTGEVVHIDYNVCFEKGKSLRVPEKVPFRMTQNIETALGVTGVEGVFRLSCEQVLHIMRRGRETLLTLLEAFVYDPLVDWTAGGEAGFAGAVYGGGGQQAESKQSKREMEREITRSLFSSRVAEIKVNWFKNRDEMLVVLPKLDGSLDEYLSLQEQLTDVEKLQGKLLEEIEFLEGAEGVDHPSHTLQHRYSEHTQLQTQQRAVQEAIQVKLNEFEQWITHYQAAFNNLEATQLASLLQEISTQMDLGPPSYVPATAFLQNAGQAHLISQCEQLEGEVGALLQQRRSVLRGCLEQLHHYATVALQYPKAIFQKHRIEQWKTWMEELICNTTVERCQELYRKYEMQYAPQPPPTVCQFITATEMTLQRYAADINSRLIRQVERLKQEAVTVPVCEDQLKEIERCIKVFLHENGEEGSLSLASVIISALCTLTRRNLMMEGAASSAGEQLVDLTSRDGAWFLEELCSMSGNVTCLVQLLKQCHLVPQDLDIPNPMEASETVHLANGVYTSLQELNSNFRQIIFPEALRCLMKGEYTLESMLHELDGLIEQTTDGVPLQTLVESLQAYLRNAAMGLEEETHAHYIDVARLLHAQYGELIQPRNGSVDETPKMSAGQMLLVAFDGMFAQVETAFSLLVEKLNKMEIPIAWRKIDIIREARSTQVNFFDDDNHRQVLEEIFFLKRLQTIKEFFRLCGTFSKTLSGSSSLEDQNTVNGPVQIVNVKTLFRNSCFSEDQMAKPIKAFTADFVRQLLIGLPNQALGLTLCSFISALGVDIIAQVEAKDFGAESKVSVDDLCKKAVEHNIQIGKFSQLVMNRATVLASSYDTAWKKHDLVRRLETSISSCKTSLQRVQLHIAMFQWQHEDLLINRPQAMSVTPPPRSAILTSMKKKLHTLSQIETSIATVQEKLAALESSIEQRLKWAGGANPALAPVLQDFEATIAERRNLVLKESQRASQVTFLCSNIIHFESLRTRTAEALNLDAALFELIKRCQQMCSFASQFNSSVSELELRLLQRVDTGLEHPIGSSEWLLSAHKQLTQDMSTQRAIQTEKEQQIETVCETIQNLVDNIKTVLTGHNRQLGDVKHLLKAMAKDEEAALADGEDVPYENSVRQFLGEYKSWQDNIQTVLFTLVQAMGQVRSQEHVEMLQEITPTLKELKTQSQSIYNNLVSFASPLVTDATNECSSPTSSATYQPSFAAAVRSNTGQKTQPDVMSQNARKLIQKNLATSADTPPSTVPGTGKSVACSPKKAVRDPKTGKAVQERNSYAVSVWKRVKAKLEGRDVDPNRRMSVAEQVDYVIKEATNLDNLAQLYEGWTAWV", "UniProt Q9Y289, 610-635": "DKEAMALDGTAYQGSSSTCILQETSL", "UniProt O15198": "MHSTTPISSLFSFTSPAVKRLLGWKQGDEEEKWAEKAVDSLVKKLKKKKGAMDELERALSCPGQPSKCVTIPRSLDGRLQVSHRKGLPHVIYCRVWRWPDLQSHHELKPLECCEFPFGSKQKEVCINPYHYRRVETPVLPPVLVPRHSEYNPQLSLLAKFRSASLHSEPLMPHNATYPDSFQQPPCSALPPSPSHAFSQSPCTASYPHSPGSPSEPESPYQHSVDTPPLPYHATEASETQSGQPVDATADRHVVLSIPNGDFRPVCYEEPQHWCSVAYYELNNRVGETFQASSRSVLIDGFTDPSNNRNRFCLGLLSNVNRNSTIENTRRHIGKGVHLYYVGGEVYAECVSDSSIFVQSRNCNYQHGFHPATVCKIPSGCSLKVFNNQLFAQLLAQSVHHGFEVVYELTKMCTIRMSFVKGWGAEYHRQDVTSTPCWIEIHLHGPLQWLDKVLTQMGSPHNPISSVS", "UniProt Q8TEV9, 511-534": "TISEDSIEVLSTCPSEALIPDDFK", "UniProt O00161": "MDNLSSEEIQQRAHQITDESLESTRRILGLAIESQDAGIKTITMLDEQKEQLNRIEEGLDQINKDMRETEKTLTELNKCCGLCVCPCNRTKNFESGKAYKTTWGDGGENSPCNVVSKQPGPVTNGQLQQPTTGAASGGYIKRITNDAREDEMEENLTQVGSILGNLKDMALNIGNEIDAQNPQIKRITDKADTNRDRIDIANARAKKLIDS"},
  "source": "the supplement of paper PMC11732987",
  "about": "“Enantioselective OTUD7B fragment discovery through chemoproteomics screening and high-throughput optimisation” (Communications Chemistry, 2025)",
  "note": "This is one part of the list. The data scatter; read single values as rough.",
  "data": [
    {"compound": "ClCC(=O)N[C@H]1CCCc2ccccc12", "assay": "log2 mean competition ratio of IA-DTB cysteine labelling (DMSO/compound) (log2 ratio); higher = stronger cysteine engagement by compound", "conditions": "200 µM; treatment time: 4 h; cell line lysate: HEK293T", "experimental": "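IA-DTB competitive cysteine chemoproteomics in HEK293T RIPA lysate. Lysates were treated with compound 29 or 30 at 50 or 200 µM for 4 h, then IA-DTB (500 µM, 1 h), trypsin-digested, NeutrAvidin-enriched and analysed by diaPASEF. Competition ratio = intensity DMSO / intensity compound (n=4 treated, n=64 DMSO); binding: mean log2 CR ≥ 1 and p ≤ 0.05 plus QC filters. Target is the cysteine site.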", "values": [
      {"target": "SMG9 C380 (UniProt Q9H0W8)", "log2 mean competition ratio": 0.242},
      {"target": "SNUPN C199 (UniProt O95149)", "log2 mean competition ratio": -0.295},
      {"target": "SNTA1 C400 (UniProt Q13424)", "log2 mean competition ratio": 0.375},
      {"target": "SLC1A4 C500 (UniProt P43007)", "log2 mean competition ratio": -0.21},
      {"target": "SMC1B C29 (UniProt Q8NDV3)", "log2 mean competition ratio": -0.0314},
      {"target": "SMG8 C555 (UniProt Q8ND04)", "log2 mean competition ratio": -0.0118},
      {"target": "SMG1 C1448 (UniProt Q96Q15)", "log2 mean competition ratio": -0.204},
      {"target": "SLC25A1 C70 (UniProt P53007)", "log2 mean competition ratio": 0.293},
      {"target": "SMARCA1 C377 (UniProt P28370)", "log2 mean competition ratio": 0.104},
      {"target": "SNTB2 C450 (UniProt Q13425)", "log2 mean competition ratio": -0.213},
      {"target": "SMCHD1 C1445 (UniProt A6NHR9)", "log2 mean competition ratio": 0.155},
      {"target": "SMOC1 C315 (UniProt Q9H4F8)", "log2 mean competition ratio": 0.174},
      {"target": "SMARCC2 C495 (UniProt Q8TAQ2)", "log2 mean competition ratio": -0.238},
      {"target": "SLC6A15 C367", "log2 mean competition ratio": 0.142},
      {"target": "SLK C1212", "log2 mean competition ratio": -0.00393},
      {"target": "SLU7 C455 (UniProt O95391)", "log2 mean competition ratio": -0.16},
      {"target": "SNIP1 C299 (UniProt Q8TAD8)", "log2 mean competition ratio": -0.0539},
      {"target": "SNX4 C342 (UniProt O95219)", "log2 mean competition ratio": -0.211},
      {"target": "SLC27A6 C147 (UniProt Q9Y2P4)", "log2 mean competition ratio": 0.0613},
      {"target": "SLC5A6 C628 (UniProt Q9Y289)", "log2 mean competition ratio": -0.0651},
      {"target": "SOGA1 C499 (UniProt O94964)", "log2 mean competition ratio": 0.0423},
      {"target": "SMURF1 C152", "log2 mean competition ratio": 0.245},
      {"target": "SMARCA2 C1175 (UniProt P51531)", "log2 mean competition ratio": 0.118},
      {"target": "SLC7A2 C376 (UniProt P52569)", "log2 mean competition ratio": -0.203},
      {"target": "SLC7A1 C628 (UniProt P30825)", "log2 mean competition ratio": 0.422},
      {"target": "SMAD9 C61 (UniProt O15198)", "log2 mean competition ratio": 0.0649},
      {"target": "SLC2A12 C601", "log2 mean competition ratio": 0.364},
      {"target": "SLC20A1 C264 (UniProt Q8WUM9)", "log2 mean competition ratio": 0.017},
      {"target": "SLC12A9 C911 (UniProt Q9BXP2)", "log2 mean competition ratio": -0.0263},
      {"target": "SMPD4 C698 (UniProt Q9NXE4)", "log2 mean competition ratio": 0.0849},
      {"target": "SNRPD2 C46", "log2 mean competition ratio": -0.0551},
      {"target": "SMCR8 C523 (UniProt Q8TEV9)", "log2 mean competition ratio": 0.00532},
      {"target": "SNAP23 C112 (UniProt O00161)", "log2 mean competition ratio": 0.355},
      {"target": "SMPD2 C304 (UniProt O60906)", "log2 mean competition ratio": 0.0323},
      {"target": "SMARCA2 C968 (UniProt P51531)", "log2 mean competition ratio": 0.209},
      {"target": "SNRNP48 C292 (UniProt Q6IEG0)", "log2 mean competition ratio": 0.429},
      {"target": "SNX33 C232 (UniProt Q8WV41)", "log2 mean competition ratio": 0.0785},
      {"target": "SLC49A4 C135", "log2 mean competition ratio": 0.0303}
    ]}
  ]
}
